# Measurements from paper PMC8310061.
# No constants are given. Whether binding was seen depends on the method and setting. Binding seen in cells or lysates may run through a third protein. Binding can be weak; no strength is given.
# Target: His-tagged scaffold Δ49ApoA1
# Assay: pull-down; MOMP and His-tagged Δ49ApoA1 co-translated in an E. coli cell-free reaction with DMPC and telodendrimer PEG5k-CA8, 30 °C, 14-18 h; complex purified on nickel resin by the His tag of Δ49ApoA1; SDS-PAGE and dot blot with mAb40 and Penta-His
binder,measurement,value
"Chlamydia muridarum major outer membrane protein (MOMP) (protein, UniProt P75024 1-387) MKKLLKSVLAFAVLGSASSLHALPVGNPAEPSLMIDGILWEGFGGDPCDPCTTWCDAISLRLGYYGDFVFDRVLKTDVNKQFEMGAAPTGDADLTTAPTPASRENPAYGKHMQDAEMFTNAAYMALNIWDRFDVFCTLGATSGYLKGNSAAFNLVGLFGRDETAVAADDIPNVSLSQAVVELYTDTAFAWSVGARAALWECGCATLGASFQYAQSKPKVEELNVLCNAAEFTINKPKGYVGQEFPLNIKAGTVSATDTKDASIDYHEWQASLALSYRLNMFTPYIGVKWSRASFDADTIRIAQPKLETSILKMTTWNPTISGSGIDVDTKITDTLQIVSLQLNKMKSRKSCGLAIGTTIVDADKYAVTVETRLIDERAAHVNAQFRF",binding,binds
